These results are taken from PMC9499535, “Distinct architectural requirements for the parS centromeric sequence of the pSM19035 plasmid partition machinery”.

Results are given in words; binding and its absence hold for the method and conditions named. Binding can be weak; no strength is given.

The target in the assay is ParApSM-GFP-His6 (Streptococcus pyogenes (plasmid pSM19035)). Nature of the assay: TIRF microscopy on an nsDNA-carpeted flow cell; preformed ParApSM-GFP/ParBpSM-Alexa647 complexes on the nsDNA-carpet with 7R- or 4R-parSpSM, washed with ATP buffer containing ParApSM-GFP (0.5 μM); ParBpSM-Alexa647 dissociation followed; both purified.

B1: ParBpSM-Alexa647 (ParBpSM-GCE, 1% labeled) (protein, UniProt Q57468 1-71)
chain: MIVGNLGAQKAKRNDTPISAKKDIMGDKTVRVRADLHHIIKIETAKNGGNVKEVMDQALEEYIRKYLPDKL
modifications: Alexa647 maleimide on the added cysteine (73C); 1% of the protein labelled
Turning to B1, the binding result is “binds”.
